Laboratory results as given in article PMC3139607.
Results are given in words; binding and its absence hold for the method and conditions named. Some results given as binding are weak or reduced against the parent protein; the word gives no strength.

Columns and labels:
[1] = biological target: membrane CD4 on PM-1 cells pre-treated with recombinant gp120 IIIB (human (endogenous in PM-1) | HIV-1 isolate IIIB) (UniProt P01730); assay: flow cytometry on cells; 500,000 cells per sample, 20 min on ice with 1 µg MAb; fluorescein-conjugated anti-mouse IgG; PM-1 cells treated or not with recombinant gp120; RK13 cells expressing Ba-L Env treated or not with 2D-CD4 or CD4-M3; only the binder purified
[2] = biological target: membrane-expressed human CD4 (human (endogenous in PM-1)) (UniProt P01730); assay: as above

B1: MAb DB81 (antibody, V domains shown)
VH: EVQLQQSGPELVKPGASVKISCKASGYSFTDYTMLWVKQSHGKSLEWIGNINPYYDTTTYNLNFKGKATMTVDKSSSTAYMQLNSLTSEDSAVYYCAREGDYGHPFAYWGQGTLVTVSS
VL: DIVMTQSHKFMSTSVGDRVSITCKASQDVSTTVAWYQQKPGQSPKLLIYSASYRYTGVPDRFTGSGSGTDFTFTISSVQAEDLAVYYCQQHYSTPPTFGGGTKLEIR
binding [1]: binds | binding [2]: binds
